PubChem BioAssay AID652272 | Drosophila RNAi Screening Center – 2013

- Screen: 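Genome-wide knock-down search for components of Hedgehog signalling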 (primary screen)
- Cells: Drosophila clone 8 (Cl8) cells
- Reagent: long dsRNA against Drosophila genes
- Measured: 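Plate reader light from a firefly reporter under a ptc promoter fragment that responds to Hedgehog, with Renilla light as transfection reference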
- Reading the numbers: firefly Hh reporter signal: higher = more ptc reporter light; Renilla reference signal: higher = more Renilla control light
- Call rule: 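Called a hit if the two-replicate mean z-score lies below -2 or above +3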
- Calls: active = hit: reporter lowered or raised; inactive = not a hit
In all, the deposit lists about 21,000 reagents; this is an unselected part of those that have a named target and a result. Of all reagents, 503 (2.4%) were called active. 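Raw plate light values, not normalised; calls rest on replicate z-scores that were not deposited; hits include reporter decreases as well as increases.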 The numbers tell different reagents against one gene apart. Names joined by + are all predicted targets of the reagent. Not given: the amount of reagent, the time to read-out.

target gene | dsRNA no. | firefly Hh reporter signal, replicate 1 | firefly Hh reporter signal, replicate 2 | firefly Hh reporter signal, replicate 3 | Renilla reference signal, replicate 1 | Renilla reference signal, replicate 2 | activity call
spz4 | 1 | 83501 | 63334 | – | 2506 | 5090 | inactive
Tsc1 | 1 | 1.02e5 | 87829 | – | 4016 | 3257 | inactive
CG9948 | 1 | 1.20e5 | 80730 | – | 5144 | 3824 | inactive
CG8312 | 1 | 71757 | 1.40e5 | – | 1433 | 4005 | inactive
Hsp60B | 1 | 1.07e5 | 71218 | – | 4355 | 3123 | inactive
CG31676 | 1 | 1.33e5 | 59339 | – | 3531 | 6384 | inactive
CG2975 | 1 | 2.02e5 | 1.37e5 | – | 4453 | 3607 | inactive
Shal | 1 | 2.61e5 | – | – | 5408 | – | inactive
Shal | 2 | 1.49e5 | 1.55e5 | – | 5456 | 4732 | inactive
Hsp70Bb + Hsp70Ba + Hsp70Bc + 1 more | 1 | 56534 | 1.01e5 | – | 2471 | 4518 | inactive
Hsp70Bb + Hsp70Ba + Hsp70Bc + 1 more | 2 | 55994 | 1.24e5 | – | 2261 | 5930 | inactive
CG12672 | 1 | 99696 | 4.82e5 | 3.63e5 | 2835 | 4675 | inactive
CG15831 (retired record) | 1 | 1.20e5 | 2.04e5 | – | 4581 | 9210 | inactive
fry | 1 | 1.51e5 | 3.16e5 | – | 4411 | 14162 | inactive
fry | 2 | 18196 | 27432 | 62269 | 2677 | 3605 | inactive
fry | 3 | 26295 | 35640 | 52843 | 4934 | 3302 | inactive
fry | 4 | 1.17e5 | 63273 | – | 4279 | 2091 | inactive
RyR | 1 | 1.22e5 | 53952 | – | 2982 | 5024 | inactive
PH4alphaNE3 | 1 | 1.32e5 | 1.12e5 | – | 3313 | 3015 | inactive
gammaCOP | 1 | 1.16e5 | 36528 | – | 7332 | 2160 | active
CG10943 | 1 | 48933 | 58845 | 57607 | 4741 | 4373 | inactive
CR33221 | 1 | 7.43e5 | 3.04e5 | – | 44421 | 7417 | inactive
Sply | 1 | 6.38e5 | 80187 | – | 3323 | 3323 | inactive
CG30275 | 1 | 1.16e5 | 95383 | – | 3157 | 7904 | inactive
CG11529 | 1 | 83241 | 31211 | 38741 | 3521 | 3299 | inactive
CG31805 | 1 | 67763 | 3.29e5 | – | 2033 | 14112 | inactive
Hsp60C | 1 | 67146 | 29520 | – | 1330 | 3372 | inactive
chas | 1 | 97105 | 2.19e5 | – | 3488 | 8387 | inactive
chas | 2 | 1.02e5 | 2.49e5 | – | 3776 | 9879 | inactive
CG11298 | 1 | 87427 | 79548 | – | 2288 | 6267 | inactive
CG30486 | 1 | 71973 | 45347 | – | 1609 | 3211 | inactive
COX8 | 1 | 62806 | 83170 | – | 2025 | 2069 | inactive
RpS8 | 1 | 22803 | 60825 | – | 1361 | 4044 | inactive
CG30095 | 1 | 74779 | 39725 | – | 2081 | 3253 | inactive
CG33061 | 1 | 1.37e5 | – | – | 1508 | 3750 | inactive
CG43373 | 1 | 1.24e5 | – | – | 1552 | 4045 | inactive
CG43373 | 2 | 80182 | – | – | 1544 | 2512 | inactive
Est-P | 1 | 26021 | 28761 | 52420 | 2288 | 3272 | inactive
lncRNA:CR43334 | 1 | 1.33e5 | 2.51e5 | – | 3690 | 11266 | inactive
lncRNA:CR43334 | 2 | 82876 | 1.81e5 | – | 2281 | 7164 | inactive

Just “Renilla reference signal, replicate 1” (6 entries from above):
COX8 = 2025
RpS8 = 1361
CG30095 = 2081
CG33061 = 1508
CG43373 #1 = 1552
CG43373 #2 = 1544
